Experimental data taken from PubChem BioAssay AID328 (DTP/NCI, 2004).
The list shows only some results of the screen, not a fair sample: it gathers tests that were run many times, whatever their T/C, doses with no T/C, and many T/C values between a quarter and a half above the control. Further doses and runs are listed elsewhere. T/C: endpoint of the treated group in % of that of the vehicle group. Some doses have a count of surviving animals in place of a T/C: the source files T/C as zero there, which appears to mark a toxic dose or a test without result, not a measured value. Some doses without a T/C left all or most animals alive at the check, yet need not have been tolerated: survival well below the control is almost never listed, so the zero probably covers shortened survival too. Counts of survivors are from the toxicity check (mostly the fifth day) where no day follows; animals may have died later. Schedules are NCI's codes, read here as Q, the interval in days (D) or hours (H), X, the number of doses. Some doses were run more than once; the values are given in rising order. Where survival is the endpoint, this PubChem deposit counts one and a half times the control or more as active, and values a quarter to a half above the control carry no call in these data; other NCI protocols may use other cut-offs. Some T/C values are followed by the survivors on the day toxicity was checked, most often the fifth; where none is given, no animal had died by that day.

Test system: BDF1 mice, P388 leukemia ip, median survival T/C
Assay: NCI In Vivo Anticancer Drug Screen. Data for tumor model P388 Leukemia (intraperitoneal) in B6D2F1 (BDF1) mice
Settings: T/C endpoint: median survival time, higher T/C = longer survival
How it was run: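 In tumour-bearing mice, survival after compound treatment is set against the vehicle group and given as a quotient.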

[1] = dose: 3.12 mg/kg/injection, schedule: Q01DX009 (ip), vehicle: Klucel (hydroxypropylcellulose) (HPC)
[2] = dose: 100.0 mg/kg/injection, schedule: Q04DX003 (ip), vehicle: saline
[3] = dose: 200.0 mg/kg/injection, schedule: Q01DX009 (ip), vehicle: saline with Tween-80
[4] = dose: 25.0 mg/kg/injection, schedule: Q01DX009 (ip), vehicle: saline
[5] = dose: 25.0 mg/kg/injection, schedule: Q04DX003 (ip), vehicle: saline
[6] = dose: 50.0 mg/kg/injection, schedule: Q01DX009 (ip), vehicle: saline
[7] = dose: 50.0 mg/kg/injection, schedule: Q01DX009 (ip), vehicle: saline with Tween-80

Oc1c(I)cc(Cl)c2cccnc12
survivor count (dose: 50.0 mg/kg/injection, schedule: Q01DX003 (ip), vehicle: saline with Tween-80): 3 of 6
survivor count (dose: 100.0 mg/kg/injection, schedule: Q01DX003 (ip), vehicle: saline with Tween-80): 3 of 6
survivor count (dose: 200.0 mg/kg/injection, schedule: Q01DX003 (ip), vehicle: saline with Tween-80): 3 of 6

CCN(CC)CC(O)CNC(=O)c1c2nc3c(C(=O)NCC(O)CN(CC)CC)ccc(C)c3oc-2c(C)c(=O)c1N (stereo not drawn)
survivor count (dose: 150.0 mg/kg/injection, schedule: Q04DX002 (ip), vehicle: saline with Tween-80): 3 of 6
survivor count (dose: 200.0 mg/kg/injection, schedule: Q04DX002 (ip), vehicle: saline with Tween-80): 4 of 6
survivor count (dose: 400.0 mg/kg/injection, schedule: Q04DX002 (ip), vehicle: saline with Tween-80): 0 of 6

COc1c(C)c2c(c(O)c1C/C=C(\C)CCC(=O)O)C(=O)OC2
T/C (dose: 400.0 mg/kg/injection, schedule: Q01DX010 (ip), vehicle: saline): 136 % of control

Nc1nc(-c2ccccc2N=NN2CCN(N=Nc3ccccc3-c3nc(N)c4ccccc4n3)CC2)nc2ccccc12
T/C [1]: 125 % of control

CC(C)(C)C([NH-])=O.CC(C)(C)C([NH-])=O.[Cl][Pt+2][Cl]
survivor count [2]: 3 of 6

Oc1cccc2cccnc12.[Cu+].[O-]c1cccc2cccnc12
survivor count (dose: 7.5 mg/kg/injection, schedule: Q01DX009 (ip), vehicle: saline): 6 of 6
survivor count (dose: 15.0 mg/kg/injection, schedule: Q01DX009 (ip), vehicle: saline): 4 of 6
survivor count (dose: 22.7 mg/kg/injection, schedule: Q01DX009 (ip), vehicle: saline): 4 of 6
survivor count (dose: 35.0 mg/kg/injection, schedule: Q01DX009 (ip), vehicle: saline): 3 of 6
survivor count (dose: 35.0 mg/kg/injection, schedule: Q04DX003 (ip), vehicle: saline): 5 of 6

COC(=O)c1cccc(OP(=O)(N(C)C)N(C)C)c1
survivor count [3]: 0 of 6

OCCN1CCN(CCCN2c3ccccc3Sc3ccc(C(F)(F)F)cc32)CC1
T/C (dose: 1.25 mg/kg/injection, schedule: Q01DX009 (ip), vehicle: saline): 126 % of control
survivor count (dose: 1.87 mg/kg/injection, schedule: Q01DX009 (ip), vehicle: saline): 4 of 6
survivor count (dose: 2.5 mg/kg/injection, schedule: Q01DX009 (ip), vehicle: saline): 6 of 6
survivor count (dose: 5.0 mg/kg/injection, schedule: Q01DX009 (ip), vehicle: saline): 6 of 6
survivor count (dose: 6.25 mg/kg/injection, schedule: Q01DX009 (ip), vehicle: saline): 6 of 6
T/C (dose: 6.25 mg/kg/injection, schedule: Q04DX003 (ip), vehicle: saline): 128 % of control
survivor count (dose: 12.5 mg/kg/injection, schedule: Q01DX009 (ip), vehicle: saline): 6 of 6
T/C (dose: 12.5 mg/kg/injection, schedule: Q04DX003 (ip), vehicle: saline): 135 % of control
survivor count [4]: 6 of 6
T/C [5]: 145 and 148 % of control
survivor count [6]: 6 of 6

Clc1cc(Cl)c2c(c1)COCO2
survivor count (dose: 400.0 mg/kg/injection, schedule: Q01DX009 (ip), vehicle: Klucel (hydroxypropylcellulose) (HPC)): 0 of 6

CCOCc1cc([N+](=O)[O-])cc([N+](=O)[O-])c1O
survivor count [7]: 1 of 6

C[N-]N(C)C(=O)[S-].C[N-]N(C)C(=O)[S-].C[N-]N(C)C(=O)[S-].[Co]
survivor count (dose: 200.0 mg/kg/injection, schedule: Q04DX003 (ip), vehicle: saline with Tween-80): 1 of 6
survivor count (dose: 400.0 mg/kg/injection, schedule: Q04DX003 (ip), vehicle: saline with Tween-80): 0 of 6

COc1cc2c(c(OC)c1OC)-c1ccc(OC)c(=O)cc1[C@@H](NC(=O)C(F)(F)F)CC2
T/C (dose: 0.02 mg/kg/injection, schedule: Q01DX009 (ip), vehicle: Klucel (hydroxypropylcellulose) (HPC)): 140 % of control
T/C (dose: 0.04 mg/kg/injection, schedule: Q01DX009 (ip), vehicle: Klucel (hydroxypropylcellulose) (HPC)): 136 % of control
survivor count (dose: 0.78 mg/kg/injection, schedule: Q01DX009 (ip), vehicle: Klucel (hydroxypropylcellulose) (HPC)): 6 of 6
survivor count (dose: 1.56 mg/kg/injection, schedule: Q01DX009 (ip), vehicle: Klucel (hydroxypropylcellulose) (HPC)): 6 of 6
survivor count [1]: 4 of 6
survivor count (dose: 6.25 mg/kg/injection, schedule: Q01DX009 (ip), vehicle: Klucel (hydroxypropylcellulose) (HPC)): 2 of 6

CCCCOCN(COCCCC)c1ccccc1Cl
T/C [7]: 129 % of control
T/C [3]: 132 and 140 % of control

O=CN(O)CC(=O)O.[Cu]
survivor count (dose: 20.0 mg/kg/injection, schedule: Q04DX003 (ip), vehicle: saline): 5 of 6
survivor count (dose: 30.0 mg/kg/injection, schedule: Q04DX003 (ip), vehicle: saline): 0 of 6
survivor count (dose: 40.0 mg/kg/injection, schedule: Q01DX001 (ip), vehicle: saline): 0 of 6

O=c1nc(Oc2ccccc2)nc2ncccn12
T/C (dose: 25.0 mg/kg/injection, schedule: Q01DX009 (ip), vehicle: saline with Tween-80): 140 % of control
T/C [7]: 130 % of control [5 of 6 alive]
survivor count [7]: 5 of 6
survivor count (dose: 100.0 mg/kg/injection, schedule: Q01DX009 (ip), vehicle: saline with Tween-80): 1 of 6 and 2 of 6
survivor count [3]: 0 of 6

CC(=O)OC1C(OCc2ccccc2)OC(COCc2ccccc2)C(OC2OC(COCc3ccccc3)C(OCc3ccccc3)C(OCc3ccccc3)C2OCc2ccccc2)C1OCc1ccccc1 (stereo not drawn)
survivor count (dose: 10.62 mg/kg/injection, schedule: Q01DX009 (ip), vehicle: Klucel (hydroxypropylcellulose) (HPC)): 6 of 6

Cc1cc(/C=C/c2cc[n+](C)c3ccccc23)c(O)c2ncccc12
T/C (dose: 1.5 mg/kg/injection, schedule: Q01DX009 (ip), vehicle: saline): 136 % of control
T/C (dose: 3.0 mg/kg/injection, schedule: Q01DX009 (ip), vehicle: Klucel (hydroxypropylcellulose) (HPC)): 130 % of control
survivor count (dose: 24.0 mg/kg/injection, schedule: Q01DX009 (ip), vehicle: Klucel (hydroxypropylcellulose) (HPC)): 5 of 6
survivor count (dose: 48.0 mg/kg/injection, schedule: Q01DX009 (ip), vehicle: Klucel (hydroxypropylcellulose) (HPC)): 2 of 6

OCC[N-]CC[N-]CCO.[Cl][Co][Cl]
T/C [4]: 144 % of control
T/C [6]: 147 % of control
survivor count (dose: 100.0 mg/kg/injection, schedule: Q01DX009 (ip), vehicle: saline): 6 of 6

CCc1c2cc(OC)c(OC)cc2cc2c3cc(OC)c(OC)cc3cc[n+]12 (tested in a mixture with another compound)
T/C (dose: 22.0 mg/kg/injection, schedule: Q04DX003 (ip), vehicle: saline): 127 % of control
T/C (dose: 33.0 mg/kg/injection, schedule: Q04DX003 (ip), vehicle: saline): 145 % of control
T/C (dose: 44.0 mg/kg/injection, schedule: Q04DX003 (ip), vehicle: saline): 133 % of control
T/C (dose: 66.0 mg/kg/injection, schedule: Q04DX003 (ip), vehicle: saline): 141 % of control

Cc1ccc([N+](=O)[O-])cc1N=C=O
survivor count (dose: 200.0 mg/kg/injection, schedule: Q04DX003 (ip), vehicle: Klucel (hydroxypropylcellulose) (HPC)): 6 of 6

O=C1C(=O)c2ccccc2-c2ccccc21.O=C1C(=O)c2ccccc2-c2ccccc21.[Hg]
T/C (dose: 6.0 mg/kg/injection, schedule: Q01DX009 (ip), vehicle: saline with Tween-80): 127 % of control
survivor count (dose: 12.0 mg/kg/injection, schedule: Q01DX009 (ip), vehicle: saline with Tween-80): 5 of 6

CS(=O)(=O)OCCNC[C@@H](O)[C@@H](O)CNCCOS(C)(=O)=O
survivor count (dose: 8.2 mg/kg/injection, schedule: Q01DX009 (ip), vehicle: saline): 6 of 6
survivor count (dose: 16.5 mg/kg/injection, schedule: Q01DX009 (ip), vehicle: saline): 6 of 6
T/C [5]: 145 % of control
survivor count (dose: 33.0 mg/kg/injection, schedule: Q01DX009 (ip), vehicle: saline): 6 of 6
survivor count (dose: 50.0 mg/kg/injection, schedule: Q04DX003 (ip), vehicle: saline): 5 of 6
survivor count (dose: 75.0 mg/kg/injection, schedule: Q04DX003 (ip), vehicle: saline): 5 of 6
survivor count [2]: 4 of 6
